Some of the results follow. Shown are side measurements of this screen, not its main read-out; they come without a call. Compounds called inactive in the main read-out are mostly missing here. The note in brackets gives the kind of curve behind each potency; many fits are weak.
Test: qHTS Assay for Lipid Storage Modulators in Drosophila S3 Cells;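 as to cell number change: cells counted by Cell Tracker Red CMTPX staining in the red channel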
Conditions: BODIPY lipid droplet fluorescence, 18-24 h; for cell number change: measured here: cell count max response, cells fed with added oleic acid
Summary of the method: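 Drosophila S3 cells loaded with oleic acid (400 uM, as added) and compounds at several concentrations; lipid droplets imaged by 488-nm laser-scanning cytometry, 500–530 nm intensity and object ratio to cell channel. Percent activity normalized to 20 uM Triacsin C.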

[1] = measured here: cell number channel AC50, cells fed with added oleic acid
[2] = measured here: lipid fluorescence (Fed channel) AC50, cells fed with added oleic acid

| Compound | AC50 [1] | AC50 [2] | cell number change [%] |
| --- | --- | --- | --- |
| CCc1ccc(NC(=O)C(C)OC(=O)c2ccc(-n3cnnn3)cc2)cc1 (centres undefined) | 0.58 µM [falling, single point] | 29.1 µM [falling, single point] | – |
| CCC(C)NS(=O)(=O)c1ccc(OCC(=O)NCc2cccnc2)cc1 (centres undefined) | – | 0.082 µM [rising, full curve, poor fit] | 28.5 |
| Cc1cc(N=Cc2c(O)ccc3cc(Br)ccc23)no1 | 2.06 µM [falling, partial curve] | 2.06 µM [falling, partial curve] | -48.4 |
| O=C(NCCOc1ccc(Cl)cc1)c1ccco1 | – | – | 17.1 |
| Cc1ccc(C)c(Cn2nnc3c(=O)[nH]c(C4CCCN(C(=O)c5ccco5)C4)nc32)c1 (centres undefined) | – | 29.1 µM [rising, single point] | -5.13 |
| COC(=O)[C@@H](NC(=O)NC(C)CCc1ccccc1)C(C)C (some centres undefined) | – | – | 11.9 |
| CC(=O)Nc1ccc(S(=O)(=O)N2CCC(C(N)=O)(N3CCCCC3)CC2)cc1 | – | – | 11.3 |
| CC(/C=C/c1ccc2c(c1)OCO2)=N\NC(=O)COc1ccccc1C | 0.058 µM [rising, full curve, poor fit] | 0.0366 µM [rising, partial curve, poor fit] | – |
| O=C(c1ccccc1)N1CCN(C2C3CC4CC(C3)CC2C4)CC1 (centres undefined) | 0.461 µM [falling, single point] | 16.4 µM [falling, partial curve] | 2.08 |
| CC(=O)Nc1ccc(S(=O)(=O)N2CCN(c3cccc(C)c3C)CC2)cc1 | 2.31 µM [rising, full curve, poor fit] | 0.259 µM [rising, partial curve, poor fit] | 21.6 |
| OC(CN1CCN(c2ccccn2)CC1)Cn1c2ccc(Cl)cc2c2cc(Cl)ccc21 (centres undefined) | 23.1 µM [falling, single point] | 29.1 µM [falling, single point] | -60.3 |
| Cc1cc2ncc(C(=O)Nc3ccsc3C(=O)O)c(C)n2n1 | 6.51 µM [falling, single point] | 6.51 µM [falling, single point] | 20.6 |
| CC1CCN(c2ccc3nnc(CCC(=O)N4CCN(c5ccccc5F)CC4)n3n2)CC1 | – | 29.1 µM [falling, single point] | -21.5 |
| CS(=O)(=O)c1ccc(Cl)c(NC(=O)COc2ccc3c(c2)CCC3)c1 | – | 0.58 µM [rising, single point] | – |
| COc1ccc(-c2noc(=O)n2Cc2ccc(C#N)cc2)cc1 | – | – | 8.42 |
| COc1ccc2oc(C(=O)OCC(=O)N(CC(C)C)c3c(N)n(Cc4ccccc4)c(=O)[nH]c3=O)c(C)c2c1 | 5.17 µM [rising, single point] | – | – |
| O=c1sc(N2CCN(c3ccccc3F)CC2)nc2ccsc12 | 0.517 µM [rising, full curve, poor fit] | 0.651 µM [rising, full curve] | – |
| CC(C)c1ccc(OCC(=O)Nc2ccccc2C(=O)N2CCOCC2)cc1 | – | – | 10.7 |
| CN(c1ccccc1)S(=O)(=O)c1ccc(NC(=O)c2cccs2)cc1 | – | 35.5 µM [rising, single point] | – |
| O=C(CNC1CCCC1)Nc1cc(Cl)ccc1[N+](=O)[O-] | – | 0.82 µM [falling, full curve] | -0.816 |

| Compound | AC50 [1] | AC50 [2] | cell number change [%] |
| --- | --- | --- | --- |
| CC1CCCCC1NC(=O)COC(=O)c1ccc2c(c1Cl)C(=O)c1ccccc1C2=O (centres undefined) | – | 0.13 µM [rising, full curve] | -3.42 |
| Cc1cc(NCc2ccccc2)c2ccccc2n1 | – | 29.1 µM [rising, single point] | -18.1 |
| COc1ccccc1C(=O)Nc1cccc(C(=O)c2ccccc2)c1 | 11.6 µM [falling, single point] | – | -36.5 |
| CCOc1ccc(S(=O)(=O)Nc2cccc(C(=O)NCC3(N4CCCCC4)CCCCC3)c2)cc1 | 11.6 µM [rising, single point] | – | 35 |
| COc1ccc(C2NC(c3ccc(OC)cc3OC)C(C)C(=O)C2C)c(OC)c1 (centres undefined) | 10.3 µM [rising, partial curve, poor fit] | – | 51 |
| COC(=O)CN1C(=S)N(c2ccc(Cl)cc2)C(=O)C1CC(=O)Nc1ccc(Cl)cc1 (centres undefined) | 29.1 µM [falling, single point] | 25.9 µM [falling, single point] | -41.6 |
| O=C(NNC(=O)c1ccccc1F)c1ccc(-n2cncn2)c([N+](=O)[O-])c1 | – | 0.651 µM [falling, single point] | 11.8 |
| Cc1ccc(NC2CCCN(C(=O)c3cccc(-c4ncc[nH]4)c3)C2)cc1C (centres undefined) | – | – | -4.01 |
| C/C(=N\NC(N)=S)c1cc(-c2ccccc2)c(-c2ccccc2)s1 | – | 7.31 µM [falling, partial curve] | -12.6 |
| CCOC(=O)C1CCN(C(=O)Nc2ccc3oc(C)nc3c2)CC1 | – | 1.3 µM [falling, full curve] | 0.647 |
| CCC1CCc2sc(C(=O)NCC3CCCO3)cc2C1 (centres undefined) | – | 0.164 µM [falling, partial curve, poor fit] | -10.4 |
| CC(=O)N1CCN(c2ccc(NCc3ccc(F)cc3)cc2)CC1 | – | 0.184 µM [rising, full curve, poor fit] | – |
| CSc1cccc(NC(=S)N2CCCN(Cc3ccc(F)cc3)C2)c1 | 0.326 µM [rising, partial curve, poor fit] | – | 35 |
| O=C(Cn1nc(C(=O)O)c2ccccc2c1=O)Nc1ccc(F)cc1F | – | 29.1 µM [falling, single point] | -29.5 |
| COc1ccc(/C=N/Nc2ncnc3sc(C)c(C)c23)cc1 | – | 10.3 µM [rising, partial curve] | 11.5 |
| CCCc1nnc(SCC(=O)Nc2ccc(OCC)cc2)n1N | – | 4.11 µM [rising, single point] | 2.29 |
| Cc1ccc(/C=C(\C#N)C(=O)Nc2c(C)cccc2C)s1 | 0.146 µM [rising, full curve, poor fit] | 0.0731 µM [rising, full curve, poor fit] | 75.4 |
| COc1ccccc1NS(=O)(=O)c1ccc(C(=O)NCc2ccncc2)cc1 | 0.731 µM [falling, full curve, poor fit] | 3.66 µM [falling, full curve] | -7.06 |
| COc1ccc(CCNC(=O)CCCOc2ccc(Cl)cc2)cc1OC | 14.6 µM [falling, single point] | 0.0146 µM [falling, full curve, poor fit] | -36 |
| COc1cc(Cl)c(C)cc1NC(=O)CN1CCN(C(=O)C2CC2)CC1 | 2.59 µM [falling, full curve, poor fit] | 2.31 µM [falling, full curve, poor fit] | -24.1 |

Record cards, from the list above.
CCC1CCc2sc(C(=O)NCC3CCCO3)cc2C1 (centres undefined) as listed: AC50 [2]: 0.164 µM [falling, partial curve, poor fit]; cell number change [%]: -10.4
CCOc1ccc(S(=O)(=O)Nc2cccc(C(=O)NCC3(N4CCCCC4)CCCCC3)c2)cc1 as listed: AC50 [1]: 11.6 µM [rising, single point]; cell number change [%]: 35
CCCc1nnc(SCC(=O)Nc2ccc(OCC)cc2)n1N as listed: AC50 [2]: 4.11 µM [rising, single point]; cell number change [%]: 2.29
COc1ccccc1NS(=O)(=O)c1ccc(C(=O)NCc2ccncc2)cc1 as listed: AC50 [1]: 0.731 µM [falling, full curve, poor fit]; AC50 [2]: 3.66 µM [falling, full curve]; cell number change [%]: -7.06

Continued:

| Compound | AC50 [1] | AC50 [2] | cell number change [%] |
| --- | --- | --- | --- |
| CCOc1ccc2cc(C#N)c(SCC(=O)N3CCOCC3)nc2c1 | 6.51 µM [rising, single point] | – | – |
| COCCn1c(=S)[nH]c2cc(C(=O)N3CCN(c4cccc(Cl)c4)CC3)ccc2c1=O | – | 29.1 µM [falling, single point] | -4.78 |
| c1ccc(-c2noc(CN3CCc4sccc4C3)n2)cc1 | – | 29.1 µM [rising, single point] | 28.3 |
| O=C(O)C1CC1c1ccc(Br)cc1 (centres undefined) | – | 6.51 µM [falling, single point] | – |
| CN(C(=O)CC1C(=O)NCCN1Cc1cccc(C(F)(F)F)c1)C1CCOCC1 (centres undefined) | 6.51 µM [falling, single point] | 0.13 µM [falling, full curve, poor fit] | -13.9 |
| O=C(NCc1ccccc1)NC(=O)c1ccccc1 | 6.51 µM [falling, single point] | 3.26 µM [rising, full curve, poor fit] | -7.5 |
| C=CCc1cccc(C2Nc3ccccc3C(=O)N2O)c1O (centres undefined) | 0.116 µM [falling, full curve, poor fit] | – | -12.9 |
| O=C(CCC(=O)Nc1ccccc1)NNS(=O)(=O)c1ccccc1[N+](=O)[O-] | 32.6 µM [rising, single point] | 29.1 µM [rising, single point] | 48.6 |
| Cc1ccc(O)c(-c2cc(C(=O)NCc3ccccc3)[nH]n2)c1 | – | 5.8 µM [rising, full curve] | 8.08 |
| O=C(c1ccoc1)N1CCC2(CC1)Oc1ccc(Cl)cc1C(=O)C21CC(c2ccc(Cl)cc2)=NO1 (centres undefined) | – | 14.6 µM [rising, single point] | 12.8 |
| COCCN(C(=O)COC(=O)CCCOc1ccccc1)c1c(N)n(Cc2ccccc2)c(=O)[nH]c1=O | – | – | 39.5 |
| COc1ccc(Cc2n[nH]c(=S)n2N)cc1OC | – | – | 13.4 |
| O=C(Oc1ccc2c(c1)CCC2)N1CCOCC1 | – | 23.1 µM [falling, single point] | 1.87 |
| COc1ccc(N(CC(=O)N2CCOCC2)S(C)(=O)=O)c(OC)c1 | – | 29.1 µM [rising, single point] | -2.1 |
| O=C(OCCCOc1ccc(F)cc1)c1ccc(O)cc1O | – | – | 5.28 |
| CC1CCN(C(=O)Cn2ncc3c4ccccc4n(C)c3c2=O)CC1 | – | 16.4 µM [rising, single point] | 17.6 |
| Cc1ccc(S(=O)(=O)/N=C2/C=C(C3C(=O)CC(C)(C)CC3=O)C(=O)c3ccccc32)cc1 | – | 4.61 µM [falling, single point] | -86.7 |
| CCCc1cc(=O)n(-c2nc3ccccc3s2)[nH]1 | 0.184 µM [falling, full curve, poor fit] | – | -33 |

— PubChem BioAssay AID2685 (National Center for Advancing Translational Sciences (NCATS), 2010)
